Test results published in patent US20250179192A1 (PHARMABCINE, published 2025).

Amino acid sequences for entries named in this document (tags omitted). Residues count along the entry.
UniProt Q9NR61, 27-685: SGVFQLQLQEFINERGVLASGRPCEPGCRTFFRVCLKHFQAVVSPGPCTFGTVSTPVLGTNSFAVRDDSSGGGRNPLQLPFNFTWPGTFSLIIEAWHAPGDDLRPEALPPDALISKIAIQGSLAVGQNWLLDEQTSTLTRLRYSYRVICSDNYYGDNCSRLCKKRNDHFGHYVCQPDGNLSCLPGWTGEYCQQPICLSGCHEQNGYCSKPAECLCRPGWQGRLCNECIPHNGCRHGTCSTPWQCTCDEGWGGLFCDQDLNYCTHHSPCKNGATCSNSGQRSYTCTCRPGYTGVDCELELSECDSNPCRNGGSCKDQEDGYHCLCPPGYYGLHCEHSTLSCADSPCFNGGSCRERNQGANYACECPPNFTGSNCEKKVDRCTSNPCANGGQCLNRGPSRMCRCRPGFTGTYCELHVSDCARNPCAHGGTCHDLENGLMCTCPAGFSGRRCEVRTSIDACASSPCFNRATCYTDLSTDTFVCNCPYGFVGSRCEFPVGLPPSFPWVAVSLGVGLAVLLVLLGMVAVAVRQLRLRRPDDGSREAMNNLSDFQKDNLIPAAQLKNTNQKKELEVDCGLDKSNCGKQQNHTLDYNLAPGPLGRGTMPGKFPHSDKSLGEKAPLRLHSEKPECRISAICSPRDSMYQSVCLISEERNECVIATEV
UniProt P35968, 20-1356 limits assumed: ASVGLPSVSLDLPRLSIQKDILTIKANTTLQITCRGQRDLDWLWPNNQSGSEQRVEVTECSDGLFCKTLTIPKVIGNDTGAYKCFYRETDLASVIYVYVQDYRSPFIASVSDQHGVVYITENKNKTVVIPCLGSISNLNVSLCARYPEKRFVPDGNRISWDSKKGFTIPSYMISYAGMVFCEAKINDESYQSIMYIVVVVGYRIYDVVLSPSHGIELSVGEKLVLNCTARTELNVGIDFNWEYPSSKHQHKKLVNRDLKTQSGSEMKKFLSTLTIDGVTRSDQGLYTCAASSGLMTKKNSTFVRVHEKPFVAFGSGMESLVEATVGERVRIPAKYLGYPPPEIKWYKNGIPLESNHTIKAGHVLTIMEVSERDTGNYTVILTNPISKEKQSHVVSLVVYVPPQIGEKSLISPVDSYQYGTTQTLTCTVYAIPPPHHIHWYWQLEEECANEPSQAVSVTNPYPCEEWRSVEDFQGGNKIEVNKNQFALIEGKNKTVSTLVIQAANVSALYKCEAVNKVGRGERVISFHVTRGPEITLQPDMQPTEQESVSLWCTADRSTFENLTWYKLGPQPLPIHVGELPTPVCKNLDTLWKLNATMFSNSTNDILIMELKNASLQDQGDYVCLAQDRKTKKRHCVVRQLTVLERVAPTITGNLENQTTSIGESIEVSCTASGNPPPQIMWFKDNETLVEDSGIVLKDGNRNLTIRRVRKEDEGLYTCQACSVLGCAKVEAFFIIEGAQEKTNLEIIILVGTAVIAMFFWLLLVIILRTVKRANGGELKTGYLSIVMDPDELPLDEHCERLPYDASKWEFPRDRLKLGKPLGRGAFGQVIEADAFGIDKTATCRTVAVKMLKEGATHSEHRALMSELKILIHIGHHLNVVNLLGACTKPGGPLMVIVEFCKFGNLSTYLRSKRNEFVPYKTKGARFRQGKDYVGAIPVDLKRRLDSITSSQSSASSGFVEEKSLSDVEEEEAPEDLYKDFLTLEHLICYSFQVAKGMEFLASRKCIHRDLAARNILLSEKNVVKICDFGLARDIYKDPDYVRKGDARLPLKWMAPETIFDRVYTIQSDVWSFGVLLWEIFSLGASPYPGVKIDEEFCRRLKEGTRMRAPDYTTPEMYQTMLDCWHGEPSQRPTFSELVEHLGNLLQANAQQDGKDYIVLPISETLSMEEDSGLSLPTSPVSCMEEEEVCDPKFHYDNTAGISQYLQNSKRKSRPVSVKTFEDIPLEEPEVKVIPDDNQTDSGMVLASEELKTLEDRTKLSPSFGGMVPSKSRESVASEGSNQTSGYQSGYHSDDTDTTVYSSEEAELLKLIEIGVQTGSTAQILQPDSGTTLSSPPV

How the values were obtained:
[1] = target: T1, hDLL4 expressed on HEK293 cells (human, UniProt Q9NR61 27-685); test: FACS on hDLL4-overexpressing HEK293 cells (293-DLL4), 5 nM, anti-human IgG-PE secondary; secondary only 82.0
T1 construct: whole, on cells; also called DLL4-overexpressed HEK293 cells
Description: Specifically, the pcDNA-hDLL4 vector synthesized by GeneArt was transfected into HEK293 cells using Lipofectamin™ 2000 (Invitrogen #1168-019, USA), and neomycin (Gibco #10131, 50 mg/ml) was added for selection. Then, all grown cells were collected and cultured in a pool state. Then, 23 types of single colonies were obtained by culture using a limiting dilution method, and among the single colonies, one type of cell line that highly overexpressed hDLL4 was selected and tested. The selected cells were prepared to a concentration of 2×10⁷ cells/ml in FACS buffer (0.5% FBS, 0.05% sodium azide in PBS) and dispensed at 50 μl into each of FACS tubes. 5 nM fusion protein and control antibodies (6A6, 6A6×DLL4, D4, D4×DLL4, Minod-Fc) were added in 100 μl to each of the FACS tubes containing the cells, followed by reaction at 4° C. for 30 minutes. After completion of reaction, 2 ml of FACS buffer was added to each tube, followed by centrifugation at 1500 rpm for 3 minutes. The supernatant was removed, the cells were well resuspended, and then 100 μl of anti-human IgG-PE antibody (1:200, […], #A80-248PE) was added, followed by reaction at 4° C. for 20 minutes. […] The separated supernatant was removed, the cells were resuspended in 200 μl of FACS buffer, and the binding activity was analyzed using FACS (Beckton Dickinson, Lyric).

VEGFR2 (KDR) on HUVECs [2] = target: T2, VEGFR2 (KDR) on HUVECs (human, UniProt P35968 20-1356); test: FACS on HUVECs, anti-human IgG-PE secondary
T2 construct: Endogenous receptor on HUVECs; also called KDR (VEGFR-2)
Description: (§1) To determine the binding activity of the fusion protein to HUVECs, FACS analysis was performed using the fusion protein and control antibodies (6A6, 6A6×DLL4, D4, Minod-Fc).
(§2) Specifically, HUVECs (LONZA, Cat No. C2519A) were cultured at 37° C. and 5% CO₂ using a plate coated with 2% gelatin and VascuLife medium complete kit (Lifeline Cell Technology, Cat No. #LCT-LL-0005). The cells were prepared at a concentration of 2×10⁷ cells/ml in FACS buffer (0.5% FBS, 0.05% sodium azide in PBS) and dispensed at 50 μl into each of FACS tubes. 100 μl of each antibody at a concentration of 5 nM was mixed in the FACS tube, followed by reaction at 4° C. for 30 minutes. After completion of reaction, 2 ml of FACS buffer was added to each tube, followed by centrifugation at 1500 rpm for 3 minutes. The supernatant was removed, the cells were resuspended, and 100 μl of anti-human IgG-PE antibody (1:200, Bethyl, #A80-248PE) was added, followed by reaction at 4° C. for 20 minutes. 2 ml of FACS buffer was added to each FACS tube, followed by centrifugation at 1500 rpm for 3 minutes. The separated supernatant was removed, the cells were resuspended in 200 μl of FACS buffer, and the binding activity was analyzed using FACS (Beckton Dickinson, Lyric).

VEGFR2 (KDR) on HUVECs [3] = target: T2, VEGFR2 (KDR) on HUVECs; test: FACS on HUVECs, 5 nM, anti-human IgG-PE secondary; secondary only 65.7
Description: as §1, §2

- Geometric Mean : PE-A [1]: 691
- binding result (VEGFR2 (KDR) on HUVECs [2]): no binding (tested: 5 nM)
- Geometric Mean : PE-A (VEGFR2 (KDR) on HUVECs [3]): 83
B1: Minod-Fc (Fc fusion, not shown: a dimerising Fc or GST)
chain: DVDECSLGANPCEHAGKCINTLGSFECQCLQGYTGPRCEIDVNECVSNPCQNDATCLDQIGEFQCICMPGYEGVHCE
notes: written here with the Notch1 domain first
